Results are given in words; binding and its absence hold for the method and conditions named. In cells and extracts the contact can be indirect. Some entries that bind do so weakly or less than the wild type. For part of these data: Tags and fused reporters may be left off the sequences shown.
Tests used:
[1] = molecular target: T1, Neuraminidase 4 (NEU4) (human (endogenous in HK-2)) (UniProt Q8WWR8); assay: co-IP; HK-2 cells treated with TGF-β, with or without HMF (HMF notably hindered the interaction); IP-lysis buffer, antibody or IgG overnight at 4 °C, Protein A/G magnetic beads, three washes with PBST, Western blot
T1 sequence: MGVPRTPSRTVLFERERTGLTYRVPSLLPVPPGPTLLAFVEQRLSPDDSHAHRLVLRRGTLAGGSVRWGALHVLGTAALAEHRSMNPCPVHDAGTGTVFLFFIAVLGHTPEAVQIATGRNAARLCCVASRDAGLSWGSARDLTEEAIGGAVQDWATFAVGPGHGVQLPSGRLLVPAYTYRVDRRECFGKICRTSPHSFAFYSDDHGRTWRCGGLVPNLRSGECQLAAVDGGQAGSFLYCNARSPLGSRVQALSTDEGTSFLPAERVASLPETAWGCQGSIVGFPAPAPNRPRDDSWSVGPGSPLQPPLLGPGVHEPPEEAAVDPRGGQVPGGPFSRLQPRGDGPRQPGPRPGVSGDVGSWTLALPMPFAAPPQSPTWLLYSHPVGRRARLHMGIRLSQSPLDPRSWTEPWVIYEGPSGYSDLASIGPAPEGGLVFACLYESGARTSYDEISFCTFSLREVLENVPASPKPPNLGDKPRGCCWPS

Sequences of proteins named here, by UniProt entry; tags and fusion partners are left off. A change or cut given only in a name is not applied to a line headed by its entry. Residues count along the entry.
UniProt P46937: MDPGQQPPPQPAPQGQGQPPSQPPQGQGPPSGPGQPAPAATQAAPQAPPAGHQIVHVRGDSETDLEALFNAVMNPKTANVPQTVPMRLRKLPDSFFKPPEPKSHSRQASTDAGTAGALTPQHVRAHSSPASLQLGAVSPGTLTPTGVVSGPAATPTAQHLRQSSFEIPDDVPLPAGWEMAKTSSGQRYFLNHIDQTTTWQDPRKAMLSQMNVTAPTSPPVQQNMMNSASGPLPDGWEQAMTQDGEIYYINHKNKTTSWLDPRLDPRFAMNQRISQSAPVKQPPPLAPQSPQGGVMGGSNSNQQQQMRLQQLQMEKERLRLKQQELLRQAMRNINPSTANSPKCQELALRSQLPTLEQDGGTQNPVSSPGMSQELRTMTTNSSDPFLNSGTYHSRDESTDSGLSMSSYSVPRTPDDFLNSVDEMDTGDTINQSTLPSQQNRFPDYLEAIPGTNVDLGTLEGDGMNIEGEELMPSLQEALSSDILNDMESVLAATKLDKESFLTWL
His-YAP (231-263aa): residues 231-263 of P46937

[2] = molecular target: T2, pBiFC-NEU4(human)(254-388aa)-CC155 (human) (UniProt Q8WWR8); assay: split reporter; BiFC in 293T cells co-transfected with the CC155 and CrN173 fusions; controls with one plasmid alone; high content imaging
T2 sequence: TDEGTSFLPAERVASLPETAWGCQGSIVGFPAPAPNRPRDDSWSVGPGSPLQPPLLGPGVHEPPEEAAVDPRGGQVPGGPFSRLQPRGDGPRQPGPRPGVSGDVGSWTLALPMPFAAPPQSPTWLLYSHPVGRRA

[3] = molecular target: His-YAP (231-263aa) (human) (UniProt P46937); assay: co-IP; HEK293T cells co-transfected with the tagged constructs; cell lysates IP with His antibody (Figure 5E,F); the precipitating antibody of Figure 5G is not told

Yes-associated protein (YAP) (from UniProt P46937 1-504)
binding [1]: binds

pBiFC-YAP1(human)(231-263aa)-CrN173 (from UniProt P46937 231-263) (domain or fragment)
binding [2]: binds

B1: HA-tagged NEU4 (protein, UniProt Q8WWR8 1-484)
chain: T1 sequence
binding [3]: binds
